The list shows a part of the results.
Key:
Experiment in all cases: glycan array binding signal (z-score within array); higher = stronger binding
Conditions in all cases: glycan notation: IUPAC condensed, linker removed
[1] = target: Fuc(a1-4)GlcNAc
Method in brief: (§1)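 From the Consortium for Functional Glycomics database, 3228 arrays were curated, keeping only those whose protein sequence was available. Binding is given as a within-array Z-score averaged across arrays sharing a protein sequence and across linkers. Negative Z-scores can be read as non-binding.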

[2] = target: Fuc(b1-3)GlcNAc
Method in brief: as §1

[3] = target: Gal(a1-2)Gal
Method in brief: as §1

[4] = target: Gal(a1-3)Gal
Method in brief: as §1

[5] = target: Gal(a1-3)Gal(b1-3)GlcNAc
Method in brief: as §1

[6] = target: Gal(a1-3)Gal(b1-4)Glc
Method in brief: as §1

[7] = target: Gal(a1-3)Gal(b1-4)GlcNAc
Method in brief: as §1

[8] = target: Gal(a1-3)Gal(b1-4)[Fuc(a1-3)]GlcNAc
Method in brief: as §1

[9] = target: Gal(a1-3)GalNAc
Method in brief: as §1

[10] = target: Gal(a1-3)[Gal(a1-4)]Gal(b1-4)GlcNAc
Method in brief: as §1

[11] = target: Gal(a1-4)Gal(b1-4)Glc
Method in brief: as §1

[12] = target: Gal(a1-4)Gal(b1-4)GlcNAc
Method in brief: as §1

[13] = target: Gal(a1-4)GlcNAc
Method in brief: as §1

[14] = target: Gal(a1-6)Glc
Method in brief: as §1

[15] = target: Gal(b1-2)Gal
Method in brief: as §1

[16] = target: Gal(b1-3)Gal
Method in brief: as §1

[17] = target: Gal(b1-3)GalNAc
Method in brief: as §1

[18] = target: Gal(b1-3)GalNAc(b1-3)Gal(a1-4)Gal(b1-4)Glc
Method in brief: as §1

[19] = target: Gal(b1-3)GalNAc(b1-4)Gal(b1-4)Glc
Method in brief: as §1

[20] = target: Gal(b1-3)GalNAc(b1-4)[Neu5Ac(a2-3)]Gal(b1-4)Glc
Method in brief: as §1

[21] = target: Gal(b1-3)GlcNAc
Method in brief: as §1

[22] = target: Gal(b1-3)GlcNAc(b1-3)Gal(b1-3)GlcNAc
Method in brief: as §1

[23] = target: Gal(b1-3)GlcNAc(b1-3)Gal(b1-4)Glc
Method in brief: as §1

[24] = target: Gal(b1-3)GlcNAc(b1-3)Gal(b1-4)GlcNAc
Method in brief: as §1

[25] = target: Gal(b1-3)[Fuc(a1-4)]GlcNAc
Method in brief: as §1

[26] = target: Gal(b1-3)[Fuc(a1-4)]GlcNAc(b1-3)Gal(b1-3)[Fuc(a1-4)]GlcNAc
Method in brief: as §1

[27] = target: Gal(b1-3)[Fuc(a1-4)]GlcNAc(b1-3)Gal(b1-4)GlcNAc
Method in brief: as §1

[28] = target: Gal(b1-3)[Fuc(a1-4)]GlcNAc(b1-3)Gal(b1-4)[Fuc(a1-3)]GlcNAc
Method in brief: as §1

[29] = target: Gal(b1-3)[GlcNAc(b1-6)]GalNAc
Method in brief: as §1

[30] = target: Gal(b1-3)[Neu5Ac(a2-6)]GalNAc
Method in brief: as §1

[31] = target: Gal(b1-3)[Neu5Ac(a2-6)]GlcNAc(b1-6)Gal(b1-4)Glc
Method in brief: as §1

[32] = target: Gal(b1-3)[Neu5Ac(b2-6)]GalNAc
Method in brief: as §1

[33] = target: Gal(b1-4)GalNAc(a1-3)[Fuc(a1-2)]Gal(b1-4)GlcNAc
Method in brief: as §1

[34] = target: Gal(b1-4)GalNAc(b1-3)[Fuc(a1-2)]Gal(b1-4)GlcNAc
Method in brief: as §1

[35] = target: Gal(b1-4)Glc
Method in brief: as §1

[36] = target: Gal(b1-4)Glc6S
Method in brief: as §1

[37] = target: Gal(b1-4)GlcNAc
Method in brief: as §1

[38] = target: Gal(b1-4)GlcNAc(b1-2)Man(a1-3)[Gal(b1-4)GlcNAc(b1-2)Man(a1-6)]Man(b1-4)GlcNAc(b1-4)GlcNAc
Method in brief: as §1

[39] = target: Gal(b1-4)GlcNAc(b1-3)Gal(b1-3)GlcNAc
Method in brief: as §1

[40] = target: Gal(b1-4)GlcNAc(b1-3)Gal(b1-4)Glc
Method in brief: as §1

[41] = target: Gal(b1-4)GlcNAc(b1-3)Gal(b1-4)GlcNAc
Method in brief: as §1

[42] = target: Gal(b1-4)GlcNAc(b1-3)Gal(b1-4)GlcNAc(b1-3)Gal(b1-4)GlcNAc
Method in brief: as §1

[43] = target: Gal(b1-4)GlcNAc(b1-3)Gal(b1-4)[Fuc(a1-3)]GlcNAc(b1-3)Gal(b1-4)[Fuc(a1-3)]GlcNAc
Method in brief: as §1

[44] = target: Gal(b1-4)GlcNAc(b1-3)GalNAc
Method in brief: as §1

[45] = target: Gal(b1-4)GlcNAc(b1-3)[Gal(b1-4)GlcNAc(b1-6)]GalNAc
Method in brief: as §1

B1: CTMLA2 (Anopheles gambiae), Q7Q7F8 (protein)
chain: MNLMITILIAVITVVRGDLSVPKTVDDILQQNPCLCPCKPFEEKEYFIPISRTSDWFGAVAYCHSVGMELAEVLNEDEARAMGEVIAEEESDSDDEFYWIGANDLGVQGTYRWALAGRPVLYSQWAAGEPNHARGENGQQPAERCVAVAMDKYEWNDFQCTQQKPFICQQFRKH
glycan array binding signal (z-score) [1]: -0.448
glycan array binding signal (z-score) [2]: -0.06
glycan array binding signal (z-score) [3]: -0.078
glycan array binding signal (z-score) [4]: -0.152
glycan array binding signal (z-score) [5]: -0.256
glycan array binding signal (z-score) [6]: -0.157
glycan array binding signal (z-score) [7]: -0.283
glycan array binding signal (z-score) [8]: -0.225
glycan array binding signal (z-score) [9]: 0.077
glycan array binding signal (z-score) [10]: 0.065
glycan array binding signal (z-score) [11]: -0.339
glycan array binding signal (z-score) [12]: 0.095
glycan array binding signal (z-score) [13]: 0.889
glycan array binding signal (z-score) [14]: -0.285
glycan array binding signal (z-score) [15]: -0.133
glycan array binding signal (z-score) [16]: -0.195
glycan array binding signal (z-score) [17]: -0.36
glycan array binding signal (z-score) [18]: 0.443
glycan array binding signal (z-score) [19]: 0.033
glycan array binding signal (z-score) [20]: -0.324
glycan array binding signal (z-score) [21]: -0.057
glycan array binding signal (z-score) [22]: -0.63
glycan array binding signal (z-score) [23]: 4.14
glycan array binding signal (z-score) [24]: -0.58
glycan array binding signal (z-score) [25]: -0.304
glycan array binding signal (z-score) [26]: -0.527
glycan array binding signal (z-score) [27]: -0.377
glycan array binding signal (z-score) [28]: -0.224
glycan array binding signal (z-score) [29]: -0.194
glycan array binding signal (z-score) [30]: -0.277
glycan array binding signal (z-score) [31]: -0.49
glycan array binding signal (z-score) [32]: -0.168
glycan array binding signal (z-score) [33]: -0.118
glycan array binding signal (z-score) [34]: -0.354
glycan array binding signal (z-score) [35]: -0.366
glycan array binding signal (z-score) [36]: 0.005
glycan array binding signal (z-score) [37]: -0.338
glycan array binding signal (z-score) [38]: 0.217
glycan array binding signal (z-score) [39]: -0.199
glycan array binding signal (z-score) [40]: -0.248
glycan array binding signal (z-score) [41]: -0.249
glycan array binding signal (z-score) [42]: -0.39
glycan array binding signal (z-score) [43]: -0.289
glycan array binding signal (z-score) [44]: -0.165
glycan array binding signal (z-score) [45]: 0.036

Reference: the supplement of paper PMC8728848
